In US20250340591A1 (ANYGEN CO., LTD., priority 2021, published 2025):

experiment: peptide synthesis; settings: whole synthesis

**Q.** With “His(2-naphthalen-1-methyl)-Lys(caprylic)-Phe-Tyr (HKFY)” as the substance, how does the “purity (crude or final not stated)” value read?
**A.** The value was 98.5%.

experiment: general procedure: Fmoc solid-phase peptide synthesis; trityl resin; Fmoc-Tyr-wang resin; settings: whole synthesis

**Q.** With “((2R)-2-((2S)-2-((2S)-2-amino-3-(1-((2,4-difluorophenyl)(phenyl)methyl)-1H-imidazol-4-yl)propanamido)-6-octanamidohexanamido)-3-(p-tolyl)propanoyl)-L-tyrosine” as the substance, how does the “purity (crude or final not stated)” value read?
**A.** Its value is 90.4%.

**Q.** Which “purity (crude or final not stated)” value does the source give for d-His(trt)-Lys(caprylic)-Phe-Tyr here?
**A.** Its value is 92.0%.

**Q.** For “(S)-2-((2S,5S,8S,11S)-2-((1H-imidazol-4-yl)methyl)-11-((S)-2-amino-3-(1-trityl-1H-imidazol-4-yl)propanamido)-8-benzyl-5-(4-hydroxybenzyl)-4,7,10,17-tetraoxo-3,6,9,16-tetraazatetracosanamido)-N1-((S)-5-amino-1-(((S)-1-(((S)-1-(((S)-1-amino-1-oxo-3-phenylpropan-2-yl)amino)-5-guanidino-1-oxopentan-2-yl)amino)-1-oxopropan-2-yl)amino)-1,5-dioxopentan-2-yl)pentanediamide”, which “purity (crude or final not stated)” value is on record?
**A.** Its value is 87.0%.

**Q.** With His(DAMP-3)-Lys(caprylic)-Phe-Tyr as the substance, how does the “purity (crude or final not stated)” value read?
**A.** Its value is 95.2%.

**Q.** With “His(4-methyltrityl)-Lys(caprylic)-Phe-Tyr” as the substance, how does the “purity (crude or final not stated)” value read?
**A.** The value was 86.4%.

**Q.** With “N6-octanoyl-N2-(Nt-trityl-L-histidylglycyl-L-seryl)-L-lysyl-L-phenylalanyl-L-tyrosine” as the substance, how does the “purity (crude or final not stated)” value read?
**A.** The value was 95.9%.

**Q.** With “(S)-2-((R)-2-((S)-2-((S)-2-amino-3-(1-benzhydryl-1H-imidazol-4-yl)propanamido)-6-octanamidohexanamido)-3-(p-tolyl)propanamido)-3-(4-(sulfooxy)phenyl)propanoic acid” as the substance, how does the “purity (crude or final not stated)” value read?
**A.** The value was 93.9%.

**Q.** Which “purity (crude or final not stated)” value does the source give for “((R)-2-((S)-2-((S)-2-amino-3-(1-phenyl-1H-imidazol-4-yl)propanamido)-6-octanamidohexanamido)-3-(p-tolyl)propanoyl)-L-tyrosine” here?
**A.** Its value is 90.3%.

**Q.** Which “purity (crude or final not stated)” value does the source give for “N6-octanoyl-N2-(Nt-trityl-L-histidyl)-L-lysyl-L-phenylalanyl-L-serine” here?
**A.** Its value is 88.9%.

**Q.** Which “purity (crude or final not stated)” value does the source give for “(S)-N1-((S)-1-(((S)-1-(((S)-1-amino-1-oxo-3-phenylpropan-2-yl)amino)-5-guanidino-1-oxopentan-2-yl)amino)-1-oxopropan-2-yl)-2-((2S,5S,8S,11S,14S)-2-(2-amino-2-oxoethyl)-14-((S)-2-amino-3-(1-trityl-1H-imidazol-4-yl)propanamido)-5-(3-amino-3-oxopropyl)-11-benzyl-8-(4-hydroxybenzyl)-4,7,10,13,20-pentaoxo-3,6,9,12,19-pentaazaheptacosanamido)pentanediamide” here?
**A.** Its value is 88.5%.

**Q.** Which “purity (crude or final not stated)” value does the source give for His(trt)-Lys(lauric)-Phe-Tyr here?
**A.** The value was 95.2%.

**Q.** For “(6S,9S,12S,15S,18S)-1-amino-6-(((S)-1-amino-1-oxo-3-phenylpropan-2-yl)carbamoyl)-18-((S)-2-((S)-2-((S)-2-amino-3-(1-trityl-1H-imidazol-4-yl)propanamido)-3-phenylpropanamido)-3-(4-hydroxyphenyl)propanamido)-12,15-bis(3-amino-3-oxopropyl)-1-imino-9-methyl-8,11,14,17-tetraoxo-2,7,10,13,16-pentaazaicosan-20-oic acid”, which “purity (crude or final not stated)” value is on record?
**A.** Its value is 96.6%.

**Q.** Which “purity (crude or final not stated)” value does the source give for “((R)-2-((S)-2-((S)-2-amino-3-(2-(thiophen-2-yl)-1H-imidazol-4-yl)propanamido)-6-octanamidohexanamido)-3-(p-tolyl)propanoyl)-L-tyrosine” here?
**A.** Its value is 96.6%.

**Q.** For “N-((S)-5-((S)-2-amino-3-(1-benzhydryl-1H-imidazol-4-yl)propanamido)-6-(((R)-1-(((S)-1-amino-3-(4-hydroxyphenyl)-1-oxopropan-2-yl)amino)-1-oxo-3-(p-tolyl)propan-2-yl)amino)-6-oxohexyl)octanamide”, which “purity (crude or final not stated)” value is on record?
**A.** The value was 95.2%.

**Q.** Which “purity (crude or final not stated)” value does the source give for “His(adamatan-1-yl)-Lys(caprylic)-Phe-Tyr” here?
**A.** Its value is 69.7%.

**Q.** For “N2-(Nt-benzhydryl-L-histidyl)-N6-octanoyl-L-lysine”, which “purity (crude or final not stated)” value is on record?
**A.** Its value is 95.2%.

**Q.** With “N6-octanoyl-N2-(Nt-trityl-L-histidyl)-L-lysyl-L-phenylalanyl-L-tyrosyl-L-tryptophan” as the substance, how does the “purity (crude or final not stated)” value read?
**A.** Its value is 94.2%.

**Q.** With “His(4-methylbenzhydryl)-Lys(caprylic)-Phe-Tyr” as the substance, how does the “purity (crude or final not stated)” value read?
**A.** Its value is 94.2%.

**Q.** With His(benzyl)-Lys(caprylic)-Phe-Tyr as the substance, how does the “purity (crude or final not stated)” value read?
**A.** Its value is 93.5%.

**Q.** For “N6-octanoyl-N2-(Nt-trityl-L-histidyl)-L-lysyl-L-tyrosyl-L-tyrosine”, which “purity (crude or final not stated)” value is on record?
**A.** Its value is 98.0%.

**Q.** For “d-His(trt)-Lys(caprylic)-d-Phe(4-Cl)-d-Tyr”, which “purity (crude or final not stated)” value is on record?
**A.** The value was 96.6%.
